At least one structure is not confirmed: it was looked up by name or label, or the drawing left a doubt.
Tested on: IL-1β
Test: IL-1β in urine of treated infected Asc−/− mice (Western blot analysis of urine samples)
Type: in vivo
Method: IL-1β, IL-6 and IL-8 concentrations in filtered supernatants (Syringe Filter w/0.2 um PES, VWR) were determined by Immulite 1000 (Siemens) and Il-1β concentrations in cell supernatants or urine by Human or Mouse Il-1b/IL-1F2 DuoSet ELISA kits (R&D Systems). Urine MMP-7 levels were quantified with Human total MMP-7 Immunoassay Quantikine® ELISA (R&D Systems).
Cells were cultured as described above, but in particular in 6-well plates (7×10^5 cells/well, Thermo Fisher Scientific), lysed with RIPA lysis buffer, supplemented with protease and phosphatase inhibitors (Roche Diagnostics). They may then be fractionated using NE-PER Nuclear and Cytoplasmic extraction reagents (Thermo Scientific). For Caspase inhibition, cells were pre-incubated with Z-VAD(OMe)-FMK (#BML-P416-0001, Enzo Life Science, 100 μM, 30 min). Supernatants were filtered and concentrated by trichloroacetic acid precipitation, followed by acetone desiccation. […] Bands were quantified by ImageJ.
To address the contribution of MMP-7 to pathology, Asc^−/− mice were also treated with an MMP inhibitor (Batimastat), (0.5 mg in 100 μl of PBS i.p. 30 minutes before, first three and last three days of infection, FIG. 6A). […] By immunohistochemistry, some retention of unprocessed IL-1β in bladder tissue was detected, consistent with the need for MMP-7 and IL-1R to secrete mature IL-1β.

## CNC(=O)[C@H](Cc1ccccc1)NC(=O)[C@H](CC(C)C)[C@H](CSc1cccs1)C(=O)NO [Batimastat]
Asc−/− mice, CFT073, Batimastat 0.5 mg i.p., Western blot of urine
  processing of IL-1β (urine): defective processing
Mice treated with the MMP inhibitor
  urine IL-1b levels: low

Reference: US11013786B2, “Therapy” (SELECTIMMUNE PHARMA AB, priority 2015, dated 2021)
